Data from patent publication US6800750B1, “Mc1-1 gene regulatory elements and a pro-apoptotic mc1-1 variant” (Dartmouth College, priority 1999, dated 2004).
No constants are given. Whether binding was seen depends on the method and setting. Some results given as binding are weak or reduced against the parent protein; the word gives no strength.

Target: T1, Elk-1 member of the Ets family (UniProt P19419)
T1 sequence (looked up): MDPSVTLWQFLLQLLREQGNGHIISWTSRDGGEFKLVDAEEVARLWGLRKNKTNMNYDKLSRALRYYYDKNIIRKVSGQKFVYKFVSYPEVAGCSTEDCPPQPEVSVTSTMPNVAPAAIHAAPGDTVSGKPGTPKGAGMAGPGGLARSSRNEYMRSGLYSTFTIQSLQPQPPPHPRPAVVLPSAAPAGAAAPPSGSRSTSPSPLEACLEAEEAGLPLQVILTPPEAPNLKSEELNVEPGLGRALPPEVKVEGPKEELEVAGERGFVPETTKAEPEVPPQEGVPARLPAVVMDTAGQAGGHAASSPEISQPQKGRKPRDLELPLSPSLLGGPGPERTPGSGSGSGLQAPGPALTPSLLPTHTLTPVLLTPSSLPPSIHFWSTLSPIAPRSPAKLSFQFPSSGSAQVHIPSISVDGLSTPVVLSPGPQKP
Test: EMSA; both proteins in one complex (Complex I) on the Mcl-1 DNA probe, shown by supershift with either antibody

B1: serum response element (SRE) binding factor (SRF) (protein, UniProt P11831 1-508, looked up)
chain: MLPTQAGAAAALGRGSALGGSLNRTPTGRPGGGGGTRGANGGRVPGNGAGLGPGRLEREAAAAAATTPAPTAGALYSGSEGDSESGEEEELGAERRGLKRSLSEMEIGMVVGGPEASAAATGGYGPVSGAVSGAKPGKKTRGRVKIKMEFIDNKLRRYTTFSKRKTGIMKKAYELSTLTGTQVLLLVASETGHVYTFATRKLQPMITSETGKALIQTCLNSPDSPPRSDPTTDQRMSATGFEETDLTYQVSESDSSGETKDTLKPAFTVTNLPGTTSTIQTAPSTSTTMQVSSGPSFPITNYLAPVSASVSPSAVSSANGTVLKSTGSGPVSSGGLMQLPTSFTLMPGGAVAQQVPVQAIQVHQAPQQASPSRDSSTDLTQTSSSGTVTLPATIMTSSVPTTVGGHMMYPSPHAVMYAPTSGLGDGSLTVLNAFSQAPSTMQVSHSQVQEPGGVPQVFLTASSGTVQIPVSAVQLHQMAVIGQQAGSSSNLTELQVVNLDTAHSTKSE
In the case of B1, the binding is reported as “binds”.
